# The inconclusive results got no clear call from the source; some entries with a clear call stand among them for comparison. Potencies of inconclusive entries are doubtful fits and often do not repeat. Active and inactive are the calls of the source. Calls follow the shape of the dose curve; as a rule, active = well fitted cell-killing curve with a large enough effect; inconclusive = small, poorly fitted or top-dose-only effect, or effect the other way; inactive = no such curve, though single readings can be large or run the other way.
# Test system: Hek293T
# Assay: Confirmatory qHTS for gynecologic anti-cancer compounds from libraries of approved drugs and bioactive compounds; also: nearly all actives have a fitted effect of over 55% in size
# Details: gynecologic cancer cell panel viability, ATPlite luminescence, 48 h; series mostly up to 57.6 µM
# Outline: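 Seeding 1,000 cells per well preceded overnight (16 h) attachment, after which 48 h drug treatment across 57.5 uM–0.977 nM (11 points) was applied. Remaining cellular ATP, detected by ATPlite luminescence, defined IC50.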
# Potency is read from the fitted curve at half-maximal effect.
row,Structure (SMILES),Potency
1,Fc1cc(-c2cccc3ncc(-c4cnn(C5CCNCC5)c4)nc23)cc(F)c1CN1CCOCC1,"inconclusive: 21.7 µM [cytotoxic, partial curve, poor fit]"
2,Cc1nc(Nc2n[nH]c3c2CN(C(=O)NC(CN(C)C)c2ccccc2)C3(C)C)c2sccc2n1 (centres undefined),active: 9.68 µM
3,CS(=O)(=O)c1ccc(C(=O)Nc2ccc(Cl)c(-c3ccccn3)c2)c(Cl)c1,inactive
4,O=C(O)c1ccc(Nc2ncc3c(n2)-c2ccc(Cl)cc2C(c2c(F)cccc2F)=NC3)cc1,inactive
5,CN(C)c1ccc(-c2nc3ncc(Cl)c(N4CCN(CC(=O)Nc5nccs5)CC4)c3[nH]2)cc1,"inconclusive: 0.237 µM [cytotoxic, full curve]"
6,Cc1c(C)n(Cc2ccc(-c3ccccc3C(=O)O)cc2)c2ccc(C(=O)N[C@@H](C)c3ccc([N+](=O)[O-])cc3)cc12,inactive
7,NC(=O)c1ccc2nc(-c3ccc(Oc4ccc(Cl)cc4)cc3)[nH]c2c1,active: 0.0217 µM
8,CCS(=O)(=O)c1cccc(-c2cc(C(=O)NC3CCN(C)CC3)c(C)c3[nH]c4ncc(C)cc4c23)c1,"inconclusive: 8.46 µM [cytotoxic, full curve]"
9,CCc1c2c(nc3ccc(OC(=O)N4CCC(N5CCCCC5)CC4)cc13)-c1cc3c(c(=O)n1C2)COC(=O)[C@]3(O)CC,"inconclusive: 0.0193 µM [cytotoxic, full curve, poor fit]"
10,CC(C)CC(=O)Nc1n[nH]c2c1CN(C(=O)C1CCN(C)CC1)C2(C)C,active: 1.37 µM
11,COc1ccc2c(c1)c(CC(=O)O)c(C)n2C(=O)c1ccc(Cl)cc1,inactive
12,C=CC(=O)Nc1cc2c(Nc3ccc(F)c(Cl)c3)ncnc2cc1OCCCN1CCOCC1,"inconclusive: 43.2 µM [cytotoxic, single point]"
13,O=C1Cc2cc(CCN3CCN(c4nsc5ccccc45)CC3)c(Cl)cc2N1,"inconclusive: 5.44 µM [cytotoxic, single point]"
14,NS(=O)(=O)c1ccc(Nc2nc(OCC3CCCCC3)c3[nH]cnc3n2)cc1,"inconclusive: 3.43 µM [cytotoxic, full curve]"

# Nos. 10–13, reprinted for reference:
row,Structure (SMILES),Potency
10,CC(C)CC(=O)Nc1n[nH]c2c1CN(C(=O)C1CCN(C)CC1)C2(C)C,active: 1.37 µM
11,COc1ccc2c(c1)c(CC(=O)O)c(C)n2C(=O)c1ccc(Cl)cc1,inactive
12,C=CC(=O)Nc1cc2c(Nc3ccc(F)c(Cl)c3)ncnc2cc1OCCCN1CCOCC1,"inconclusive: 43.2 µM [cytotoxic, single point]"
13,O=C1Cc2cc(CCN3CCN(c4nsc5ccccc45)CC3)c(Cl)cc2N1,"inconclusive: 5.44 µM [cytotoxic, single point]"

# From PubChem BioAssay AID1345085 (National Center for Advancing Translational Sciences (NCATS), 2018)
